For part of these data: The comparison behind a weaker result is the experiment's own reference, which may not be listed here. Where a protein sequence is shown, tags need not be part of it. For part of these data: At least one result comes from cells or an extract, where the contact may be indirect.
How the values were obtained:
[1] = molecular target: T1, RC3H1 (Roquin-1) full length (Homo sapiens) (UniProt Q5TC82); assay: binding assay; details: 4SU or 6SG metabolically incorporated; PAR-CLIP in HEK293; T to C transitions in upstream AU-rich sequence and loop; protein in cells; protein details: FLAG/HA, stable inducible in HEK293 Flp-In T-REx
T1 sequence (looked up, limits assumed): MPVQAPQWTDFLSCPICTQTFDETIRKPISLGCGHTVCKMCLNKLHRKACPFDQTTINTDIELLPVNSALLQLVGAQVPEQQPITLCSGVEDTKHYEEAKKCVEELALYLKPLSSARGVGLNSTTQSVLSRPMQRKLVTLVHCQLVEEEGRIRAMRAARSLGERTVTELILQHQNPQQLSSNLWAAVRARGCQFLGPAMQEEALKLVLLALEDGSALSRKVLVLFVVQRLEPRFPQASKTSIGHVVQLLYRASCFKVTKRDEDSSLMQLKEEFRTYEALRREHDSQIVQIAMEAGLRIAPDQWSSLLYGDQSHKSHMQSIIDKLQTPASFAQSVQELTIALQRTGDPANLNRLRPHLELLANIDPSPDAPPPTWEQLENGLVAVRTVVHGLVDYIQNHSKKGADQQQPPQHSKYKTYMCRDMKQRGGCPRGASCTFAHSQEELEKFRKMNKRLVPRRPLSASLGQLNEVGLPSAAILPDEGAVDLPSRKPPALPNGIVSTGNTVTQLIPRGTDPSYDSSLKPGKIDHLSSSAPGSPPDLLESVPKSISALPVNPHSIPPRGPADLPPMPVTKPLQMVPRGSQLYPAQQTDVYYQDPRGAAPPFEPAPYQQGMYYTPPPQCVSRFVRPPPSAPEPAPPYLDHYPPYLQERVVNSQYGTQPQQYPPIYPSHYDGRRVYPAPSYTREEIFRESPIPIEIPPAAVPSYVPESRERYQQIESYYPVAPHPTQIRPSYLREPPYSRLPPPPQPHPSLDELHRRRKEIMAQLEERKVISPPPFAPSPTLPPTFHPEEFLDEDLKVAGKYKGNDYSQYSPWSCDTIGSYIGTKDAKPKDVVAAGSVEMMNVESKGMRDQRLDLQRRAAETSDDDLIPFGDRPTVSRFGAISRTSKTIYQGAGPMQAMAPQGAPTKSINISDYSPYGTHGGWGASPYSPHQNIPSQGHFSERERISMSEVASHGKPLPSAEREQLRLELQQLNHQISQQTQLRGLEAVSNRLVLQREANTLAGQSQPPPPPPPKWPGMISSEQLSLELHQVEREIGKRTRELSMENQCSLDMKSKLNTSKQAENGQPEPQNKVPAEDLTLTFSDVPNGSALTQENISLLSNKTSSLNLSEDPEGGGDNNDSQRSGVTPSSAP

[2] = molecular target: T2, RC3H1-N1 (Roquin-1, RING and ROQ domains) (Homo sapiens) (UniProt Q5TC82); assay: EMSA; details: same buffer, bound poorly, purified recombinant protein, label: 5'-32P
T2 sequence (looked up): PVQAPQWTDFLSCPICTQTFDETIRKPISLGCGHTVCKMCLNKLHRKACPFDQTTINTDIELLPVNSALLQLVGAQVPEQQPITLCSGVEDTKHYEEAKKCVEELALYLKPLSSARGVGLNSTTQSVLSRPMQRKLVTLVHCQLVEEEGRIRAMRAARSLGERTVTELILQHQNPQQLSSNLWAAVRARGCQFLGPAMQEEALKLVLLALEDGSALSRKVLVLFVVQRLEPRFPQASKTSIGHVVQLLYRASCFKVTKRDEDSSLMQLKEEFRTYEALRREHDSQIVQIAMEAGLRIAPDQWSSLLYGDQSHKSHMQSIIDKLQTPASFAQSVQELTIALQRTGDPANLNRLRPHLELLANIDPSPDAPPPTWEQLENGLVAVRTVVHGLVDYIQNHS

## UACAUAUAUAAUAUACCCUUACAUUAUGUAUGAGGGAUUUUUUUAAAUUAUAUUGAAAU [A20 3'UTR PAR-CLIP site]
[1]
  binding result: binds

## AUAUAUAAUAUACCCUUACAUUAUGUAUGAGGGAUUU [A20 37 nt]
[2]
  binding result: binds more weakly

## ACCCUUACAUUAUGUAUGAGGGA [A20 23 nt hairpin]
[2]; lower affinity than RC3H1-N2, variant of A20 37 nt
  binding result: binds more weakly
